# According to the supplement of paper PMC10338343:
# ± gives the standard deviation. Only a part is listed here, and it is no random draw. Many of these values have a large error. The list shows a part of the results.
# Assays:
# [1] = system: MIWI (PIWIL1) piRISC loaded with L1MC piRNA (30 nt); experiment: pre-steady-state target cleavage rate (min^-1); higher = faster piRNA-guided slicing of the target; conditions: guide: L1MC piRNA 5'p-UAACUAAAUACUAUGCAAGCUGUAGGUCCU
# Procedure, shortened: (§1)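 Active affinity-purified piRISC (1 nM) loaded with one synthetic guide was mixed with a transcribed, DNA-blocked target RNA library (0.1 nM), with or without 500 nM GTSF1 partner protein, in HEPES–potassium acetate buffer at 33 °C for 0–8 or 0–960 min. Uncleaved targets were sequenced, normalised to depth and to weakly complementary targets, and pooled across three trials, with k3 capped at 0.0001 min^-1. The pre-steady-state cleavage rate was determined with a burst-and-steady-state fit.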
# [2] = system: EfPiwi piRISC loaded with L1MC piRNA (26 nt); experiment: pre-steady-state target cleavage rate (min^-1); guide: L1MC piRNA 5'p-UAACUAAAUACUAUGCAAGCUGUAGG; MIWI and MILI are mouse PIWI proteins and EfPiwi is from a freshwater sponge; tags in brackets are library labels; higher = faster piRNA-guided slicing of the target
# Procedure, shortened: as §1
# [3] = auxiliary factor: 500 nM mouse GTSF1
# [4] = auxiliary factor: none (no GTSF1)
# [5] = auxiliary factor: 500 nM Ephydatia muelleri Gtsf1
Sequence,"pre-steady-state target cleavage rate [1, 3]","pre-steady-state target cleavage rate [1, 4]","pre-steady-state target cleavage rate [2, 5]",pre-steady-state target cleavage rate ([2]; auxiliary factor: none (no Gtsf1))
UCCUGGAUGUCCAUGCAUAGUAUAUAGUUA,0.00278 ± 0.0058,0.00129 ± 0.0052,0.00178 ± 0.0068,–
UCCUGGACCAGCUUGCAUAGUAUUUAGUUA,0.915 ± 0.048,0.0367 ± 0.0074,0.159 ± 0.037,–
UCCUGGAUCACGAUGCAUAGUAUUUAGAAA,0.00266 ± 0.0053,0.00207 ± 0.0041,0.0021 ± 0.0039,–
UCCUGGAUGAGCUUGCAUAGUAAUUACAAA,0.00149 ± 0.0088,0.00125 ± 0.0056,0.00446 ± 0.0034,–
UCCUCCAACAGCUUGCAUAGUAUUUAGUAA,0.675 ± 0.03,0.0256 ± 0.0063,0.00668 ± 0.0028,–
UCCUGGAUGUCCUUGCAUUGUUUUUAGUUA,0.00283 ± 0.0053,0.00177 ± 0.0044,0.000282 ± 0.01,–
UCCUGGAACAGGUAGCAUAGUAUUUAGUUA,0.266 ± 0.026,0.00407 ± 0.0017,0.00892 ± 0.0028,–
UCCUGCUACAGCUUCCAUAGAAUUUAGUUA,0.0338 ± 0.013,0.000398 ± 0.0065,0.00109 ± 0.0031,–
UCCUCCUACAGCUUGCAUAGUAAAAAGUUA,0.231 ± 0.023,0.00183 ± 0.0031,–,0.000427 ± 0.01
UCCUGGAUCAGCUUGCAUAGUAUAUAGUAA,0.458 ± 0.054,0.0134 ± 0.0052,0.00291 ± 0.0023,–
UCCUGGUACAGCUUGGUAAGUAUUUACAAA,0.00184 ± 0.0073,0.000853 ± 0.01,0.000595 ± 0.007,–
UCCUGGAUGAGCUUGCAUAGUAUUUAGUGA,0.703 ± 0.047,0.0519 ± 0.0094,0.00681 ± 0.0032,–
UCCUGGAUCAGCUUGCAUAGUUAUUACAAA,0.000855 ± 0.013,0.00142 ± 0.005,0.000465 ± 0.008,–
UCCUGCUACAGCUUGCUUAGUAUAUAGUUA,0.404 ± 0.038,0.0128 ± 0.0044,0.0125 ± 0.0047,–
UCCUGGAACACCUUGCUUAGUAUUUAGUUA,0.239 ± 0.032,0.00546 ± 0.0019,0.0036 ± 0.0033,–
UCCUGGUUGUGCUUGCAUAGUAUUUAGUAA,0.2 ± 0.022,0.0175 ± 0.0053,0.00401 ± 0.0038,–
UCCUCCUACAGCUUGCAUAGUACUUUAGUUA,0.588 ± 0.024,0.00867 ± 0.0017,0.0115 ± 0.0051,–
UCCUGGAUCAGGAAGCAUAGUAUUUAGUAA,0.00326 ± 0.0045,0.00178 ± 0.0025,0.000398 ± 0.0095,–
UCCUGGAUGUGCUUGGUAAGUAUUUAGUUA,0.00216 ± 0.006,0.00163 ± 0.0062,0.000283 ± 0.02,–
UCCUGGAACAGCUUGGAUAGUAAUUAGUUA,0.565 ± 0.055,0.0197 ± 0.0059,0.00719 ± 0.0026,–
UCCUGGAUCAGCAACCAUAGUAUUUAGAAA,0.0016 ± 0.0076,0.000516 ± 0.015,0.000506 ± 0.011,–
UCCUGCAACAGCUUGGAUAGUAUUUAGUUA,1.24 ± 0.1,0.0688 ± 0.012,0.0256 ± 0.0066,–
UCCUGGAUGUCGAAGCAAAGUUUUUAGUUA,0.000725 ± 0.015,0.000688 ± 0.0078,0.000347 ± 0.011,–

# Single records, from the list above. Values in the order: pre-steady-state target cleavage rate [1, 3] | pre-steady-state target cleavage rate [1, 4] | pre-steady-state target cleavage rate [2, 5] | pre-steady-state target cleavage rate ([2]; auxiliary factor: none (no Gtsf1))
# UCCUGGAUCAGGAAGCAUAGUAUUUAGUAA is listed with 0.00326 ± 0.0045 | 0.00178 ± 0.0025 | 0.000398 ± 0.0095 | –
# UCCUGGUUGUGCUUGCAUAGUAUUUAGUAA is listed with 0.2 ± 0.022 | 0.0175 ± 0.0053 | 0.00401 ± 0.0038 | –
